Results are given in words; binding and its absence hold for the method and conditions named. Some entries that bind do so weakly or less than the wild type.
Tests used:
[1] = biological target: T1, microtubule polymers (polymerized tubulin) (bovine) (UniProt P81947+Q6B856); assay: microtubule co-sedimentation, PC3:mCh-tub cell lysate, immunoblot
[2] = biological target: T1, microtubule polymers (polymerized tubulin) (bovine); assay: microtubule co-sedimentation, HEK293 cell lysate, immunoblot
[3] = biological target: T1, microtubule polymers (polymerized tubulin) (bovine); assay: microtubule co-sedimentation, cell lysate; positive control

Amino acid sequences for entries named in this document (tags omitted). A change or cut given only in a name is not applied to a line headed by its entry.
UniProt P81947: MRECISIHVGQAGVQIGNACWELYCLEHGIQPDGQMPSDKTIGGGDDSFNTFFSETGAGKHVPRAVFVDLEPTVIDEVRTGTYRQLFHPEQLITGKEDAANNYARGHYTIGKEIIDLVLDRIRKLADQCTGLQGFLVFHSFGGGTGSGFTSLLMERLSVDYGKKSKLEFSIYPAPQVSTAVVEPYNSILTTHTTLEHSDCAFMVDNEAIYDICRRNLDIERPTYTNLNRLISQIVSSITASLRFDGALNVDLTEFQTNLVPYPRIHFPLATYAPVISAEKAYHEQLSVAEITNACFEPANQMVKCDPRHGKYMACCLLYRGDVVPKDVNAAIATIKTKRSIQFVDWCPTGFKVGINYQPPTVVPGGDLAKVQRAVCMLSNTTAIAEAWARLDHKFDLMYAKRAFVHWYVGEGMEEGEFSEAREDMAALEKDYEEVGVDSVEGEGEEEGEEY
UniProt Q6B856: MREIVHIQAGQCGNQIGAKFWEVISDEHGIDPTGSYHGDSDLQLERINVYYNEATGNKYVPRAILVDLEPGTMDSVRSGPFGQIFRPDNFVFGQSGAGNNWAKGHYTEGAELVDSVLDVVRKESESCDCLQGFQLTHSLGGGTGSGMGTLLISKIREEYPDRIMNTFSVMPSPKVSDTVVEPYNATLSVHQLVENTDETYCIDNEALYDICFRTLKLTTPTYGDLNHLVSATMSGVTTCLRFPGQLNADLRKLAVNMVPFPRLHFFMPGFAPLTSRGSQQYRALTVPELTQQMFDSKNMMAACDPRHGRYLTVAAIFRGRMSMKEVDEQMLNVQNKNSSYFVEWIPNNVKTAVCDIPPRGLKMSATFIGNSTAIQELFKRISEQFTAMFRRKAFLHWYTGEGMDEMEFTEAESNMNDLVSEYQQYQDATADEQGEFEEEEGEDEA
UniProt O97775: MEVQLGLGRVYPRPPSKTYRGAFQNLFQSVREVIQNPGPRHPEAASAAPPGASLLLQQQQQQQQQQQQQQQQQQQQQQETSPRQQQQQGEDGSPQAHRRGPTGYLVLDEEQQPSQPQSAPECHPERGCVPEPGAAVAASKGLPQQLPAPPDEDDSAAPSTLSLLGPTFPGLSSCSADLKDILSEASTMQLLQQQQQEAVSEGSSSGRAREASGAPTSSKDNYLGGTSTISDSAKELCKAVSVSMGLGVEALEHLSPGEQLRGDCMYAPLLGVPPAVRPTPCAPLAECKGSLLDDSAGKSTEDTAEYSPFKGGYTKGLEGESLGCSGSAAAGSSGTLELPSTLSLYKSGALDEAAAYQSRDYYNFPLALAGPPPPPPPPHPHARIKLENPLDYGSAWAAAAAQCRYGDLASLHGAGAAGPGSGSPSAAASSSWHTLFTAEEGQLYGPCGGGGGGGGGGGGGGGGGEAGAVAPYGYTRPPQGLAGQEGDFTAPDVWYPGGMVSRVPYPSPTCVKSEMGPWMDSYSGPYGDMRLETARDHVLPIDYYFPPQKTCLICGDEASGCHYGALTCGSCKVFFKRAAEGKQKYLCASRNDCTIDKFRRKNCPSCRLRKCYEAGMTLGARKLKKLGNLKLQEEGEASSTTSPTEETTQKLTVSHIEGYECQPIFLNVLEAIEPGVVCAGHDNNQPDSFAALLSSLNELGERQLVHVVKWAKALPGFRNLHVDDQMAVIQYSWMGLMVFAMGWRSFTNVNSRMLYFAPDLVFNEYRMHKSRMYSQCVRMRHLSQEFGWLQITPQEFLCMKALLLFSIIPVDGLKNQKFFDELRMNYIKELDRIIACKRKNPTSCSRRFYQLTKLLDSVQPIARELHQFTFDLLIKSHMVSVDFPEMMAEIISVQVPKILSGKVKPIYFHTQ
UniProt P10275: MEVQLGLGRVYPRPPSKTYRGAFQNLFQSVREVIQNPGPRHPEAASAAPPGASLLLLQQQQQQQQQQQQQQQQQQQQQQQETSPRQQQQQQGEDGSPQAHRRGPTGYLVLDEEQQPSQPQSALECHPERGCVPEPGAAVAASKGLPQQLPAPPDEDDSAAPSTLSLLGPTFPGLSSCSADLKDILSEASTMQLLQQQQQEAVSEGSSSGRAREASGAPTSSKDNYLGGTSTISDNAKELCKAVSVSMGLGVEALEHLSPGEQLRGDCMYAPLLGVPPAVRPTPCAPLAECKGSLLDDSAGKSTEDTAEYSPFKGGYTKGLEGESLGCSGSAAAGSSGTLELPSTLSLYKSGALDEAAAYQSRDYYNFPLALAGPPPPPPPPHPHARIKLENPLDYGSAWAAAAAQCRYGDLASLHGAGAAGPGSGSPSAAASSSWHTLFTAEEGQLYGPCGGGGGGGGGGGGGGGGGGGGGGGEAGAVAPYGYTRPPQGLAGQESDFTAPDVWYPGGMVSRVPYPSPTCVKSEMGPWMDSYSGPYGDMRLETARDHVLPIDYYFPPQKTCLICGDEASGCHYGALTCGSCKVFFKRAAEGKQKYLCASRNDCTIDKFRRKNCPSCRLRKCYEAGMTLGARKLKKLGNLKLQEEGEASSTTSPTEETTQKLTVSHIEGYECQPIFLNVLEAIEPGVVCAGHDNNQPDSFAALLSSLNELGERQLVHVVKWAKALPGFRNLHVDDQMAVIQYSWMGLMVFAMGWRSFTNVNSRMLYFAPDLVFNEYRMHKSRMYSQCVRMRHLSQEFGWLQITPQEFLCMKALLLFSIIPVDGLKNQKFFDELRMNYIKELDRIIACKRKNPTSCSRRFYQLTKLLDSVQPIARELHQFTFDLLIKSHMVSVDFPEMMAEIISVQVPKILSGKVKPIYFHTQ

Substance | binding [1] | binding [2] | binding [3]
GFP-tagged C-terminal domain of the androgen receptor (amino acids 540-919) (from UniProt O97775 532-911) | binds | binds | 
GFP-tagged full-length wild-type human androgen receptor (from UniProt P10275 1-920) | binds | binds | binds
HA-tagged androgen receptor splice variant v5,6,7 (from UniProt P10275 1-724) | binds |  | 
